The numbers were not newly measured in patent US20120101076A1, “CARBONATE DERIVATIVES FOR THE TREATMENT OF COUGH” (priority 2010, published 2012), which cites them from elsewhere.

The structures appear in SMILES notation.

The data set relates to citric acid-induced cough in asthmatics. To be noted: cited from earlier work.

As to `CC(C)[N+]1(C)[C@@H]2CC[C@H]1C[C@@H](OC(=O)C(CO)c1ccccc1)C2` (stereo partly shown) [ipratropium bromide], the citric acid-induced cough result is given as “able to diminish citric acid-induced cough”.
